According to PubChem BioAssay AID488852 (National Center for Advancing Translational Sciences (NCATS), 2010):
The source calls these results inconclusive, neither active nor inactive. Calls come from the whole dose curve; as a rule, active = well fitted curve in the direction sought with a large enough effect; inconclusive = small, poorly fitted or top-dose-only effect, or another doubt; inactive = no such curve, though single readings can be large or run the other way. Potencies beside an inconclusive call are fits to weak or partial responses and may not hold up.

Amino acid sequences for entries named in this document (tags omitted). A change or cut given only in a name is not applied to a line headed by its entry.
UniProt P04062: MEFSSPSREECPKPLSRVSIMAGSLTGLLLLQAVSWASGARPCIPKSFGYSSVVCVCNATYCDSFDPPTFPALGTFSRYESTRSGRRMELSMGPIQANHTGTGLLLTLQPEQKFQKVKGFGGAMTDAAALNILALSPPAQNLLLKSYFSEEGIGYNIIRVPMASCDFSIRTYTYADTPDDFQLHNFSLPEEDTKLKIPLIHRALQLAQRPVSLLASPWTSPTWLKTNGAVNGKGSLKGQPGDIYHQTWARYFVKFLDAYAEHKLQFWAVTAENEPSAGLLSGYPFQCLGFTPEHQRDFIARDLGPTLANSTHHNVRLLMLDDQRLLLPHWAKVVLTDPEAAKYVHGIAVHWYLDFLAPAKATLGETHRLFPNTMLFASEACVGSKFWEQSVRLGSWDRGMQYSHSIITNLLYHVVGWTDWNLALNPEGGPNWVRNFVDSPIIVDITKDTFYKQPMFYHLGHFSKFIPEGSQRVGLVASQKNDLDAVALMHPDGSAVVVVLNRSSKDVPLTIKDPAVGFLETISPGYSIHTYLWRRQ

What follows are compounds tested against Lysosomal acid glucosylceramidase (Homo sapiens) (UniProt P04062) (assay: qHTS Assay for Inhibitors and Activators of N370S glucocerebrosidase as a Potential Chaperone Treatment of Gaucher Disease: Activity in N370S Spleen Homogenate Confirmation Using Alternate Substrate for Probe SAR). Settings: N370S patient spleen homogenate, resorufin-glucoside fluorescence.
Source text: NIH Chemical Genomics Center [NCGC] NIH Molecular Libraries Probe Production Centers Network [MLPCN] MLPCN Grant: MH086442-01 Assay Submitter (PI): Wei Zheng Glucocerebrosidase (GC) catalyzes the hydrolysis of beta-glucocerebroside to glucose and ceramide in lysosomes. Mutations in the glucocerebrosidase gene result in Gaucher disease, an autosomal recessive lysosomal storage disorder. Many of the mutations encountered in patients with Gaucher disease are missense alterations that may cause misfolding, decreased stability and/or mistrafficking of this lysosomal protein. […]
NCGC Assay Protocol Summary: This is a fluorogenic enzyme assay with resorufin-beta-D-glucopyranoside as the substrate and mutant N370S glucocerebrosidase from human spleen homogenate as the enzyme preparation. Upon the hydrolysis of this fluorogenic substrate, the resulting product, […] which can be detected by a standard fluorescence plate reader. […] The AC50 values were determined from concentration-response data modeled with the standard Hill equation. […] (5) Add 2 ul stop solution (1M NaOH and 1M Glycine mixture, pH 10) (6) Detect the assay plate in a ViewLux plate reader (PerkinElmer) with Ex=365 nm and Em=440nm. […]

| SMILES | Potency |
| --- | --- |
| O=C(Nc1ccccc1Sc1ccccc1)c1cnn2c1NC(=C1CC1)C=C2C(F)F | inconclusive: 32.6 µM [activator, partial curve] |
